# Primary screen of a compound library

Results are given as percent effect.
The controls that fix the scale are not given in the record; negative values are as filed.
This is an unselected part of the compounds tested.
Two or more numbers in one place are separate tests of the same structure; such repeats can differ widely.

A: 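Growth of Mycobacterium tuberculosis over 4 days (cholesterol / DPPC medium with tyloxapol); the read-out is not stated. Compounds at 50 µM. The record gives no direction; compounds that gave an IC50 in retests scored well above the rest, so higher reads as more growth inhibition. About 69,000 compounds were tested under these conditions; 0.54% (about 370) showed 50% or more at least once.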
B: 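Whole-cell growth test on Mycobacterium tuberculosis, read after 3 days in glucose-containing 7H9 medium; the read-out is not stated. Compounds at 50 µM. Direction is inferred from retests: higher values go with more growth inhibition. About 69,000 compounds were tested under these conditions; 1.1% (about 760) showed 50% or more at least once.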

For CC(C)(C)CCN1CCC(c2nnc(Cn3cccn3)n2C2CC2)CC1 the result was A: -1.718%; B: 14.2%.
For CSCCC(C)(O)CNS(=O)(=O)Cc1cccc(C)c1 (centres undefined) the result was A: 1.472%; B: -25.72%.
For CNc1ncccc1CN1CCN(C)CC(C(N)=O)C1 (centres undefined) the result was A: -22.88%; B: 10.19%.
For Cc1ccc(C2COCCN2C(=O)c2ccc(C#N)cc2)o1 (centres undefined) the result was A: -8.401% & -9.964%; B: 1.023%.
For O=C(NCc1cccs1)NCC(O)c1ccoc1 (centres undefined) the result was A: 12.47%; B: 11.43%.
For COc1cccc(CC(=O)N2CCC3(CC2)OCCCC3O)c1OC (centres undefined) the result was A: 19.79%; B: 3.542%.
For Cc1n[nH]c(C)c1CC(=O)N1CCCN(C)C2(CCN(C)CC2)C1 the result was A: -20.83%; B: -31.67%.
For Cc1cnn(CC2CCCN2Cc2nc3ccccc3c(=O)[nH]2)c1 (centres undefined) the result was A: -18.72%; B: -1.454%.
For COC(=O)c1cccc(C(=O)NCc2ccco2)n1 the result was A: -1.143%; B: -5.805%.
For COc1ccc(-c2noc([C@@H](C)NC(=O)NC(C)(C)C)c2C(=O)O)cc1 the result was A: -27.27%; B: -17.12% & -10.66%.
For CSc1cccc(CC(=O)N[C@@H]2CCNC[C@H]2O)c1 the result was A: -34.94%; B: -31.41%.
For O=C(O)C(F)(F)F.O=C(c1cccnc1)N1C[C@@H](c2ccccc2)[C@@]2(CCNC2=O)C1 the result was A: 15.52%; B: 13.87% & 4.588%.
For COC(=O)CN(C(=O)c1cc(C(C)C)no1)c1cccc(F)c1 the result was A: 9.847%; B: 1.657% & -24.93%.
For COC1CCN(S(=O)(=O)N2CCC3(CCCNC3=O)C2)CC1 (centres undefined) the result was A: -10.68%; B: -13%.
For [H][C@]12CCC[C@@]1(COCc1cccc(C)n1)CN(C(=O)Cc1ccco1)C2 the result was A: -7.927%; B: 14.97%.
For C[C@@H]1CN(C(=O)NC2CC2)C[C@]12CCN(c1ccsc1)C2=O the result was A: -5.469%; B: 4.863%.
For CCN(C(=O)CCCOC)C(c1ccc(Cl)cc1)c1ccccn1 (centres undefined) the result was A: 73.81%; B: -8.433%.
For [H][C@@]12CCN(C[C@@H]1CN1CCCCC1)[C@@H](CNC(=O)Nc1ccsc1)C2 the result was A: 19.03%; B: 1.949% & -1.302%.
For CC(=O)N(C)C(c1cccc(F)c1)c1ccccn1 (centres undefined) the result was A: -3.704%; B: -39.76%.
For CCc1nc(C)sc1CN1CCc2[nH]nc(-c3ccc(F)c(F)c3)c2C1 the result was A: -7.584%; B: 16.94%.
For COc1cccc2c1OCC(C(=O)N(C)CCCc1cnn(C)c1)C2 (centres undefined) the result was A: -6.595%; B: -14.35% & -10.36%.
For Fc1ccccc1CN1CCC(c2n[nH]c(C3CC3)n2)CC1 the result was A: 3.273%; B: -1.249%.
For Cn1cc(CN2CCCC3(COCCN(c4cccnc4)C3)C2)cn1.O=C(O)C(F)(F)F.O=C(O)C(F)(F)F (centres undefined) the result was A: 24.5% & 1.325%; B: -16.32%.
For Cc1cc(NC(=O)N(C)C2CCN(c3ccccc3F)C2=O)n(C)n1 (centres undefined) the result was A: -19.06%; B: -13.57% & -0.9933%.
For CC(C)c1nc(C2CCCN2Cc2ccon2)no1 (centres undefined) the result was A: 6.855%; B: 27.6%.
For [H][C@@]12OCCN(Cc3ccoc3)[C@@]1([H])CC[C@H]2OCc1cccc(C)n1 the result was A: 0.5569%; B: 11.86%.
For COc1cc2c(c(OC)c1OC)CCN(CCN1CCCCC1)CC2 the result was A: -8.512%; B: 9.074%.
For c1cnn(C2CN(Cc3nc(-c4ccsc4)no3)C2)c1 the result was A: 14.92%; B: 33.03%.
For CC(C)N1CC(C(=O)N2CCN(CCn3cccc3)CC2)CC1=O (centres undefined) the result was A: -5.888%; B: 5.725%.
For [H][C@@]12CC(C)=CC[C@]1([H])CN(C(=O)c1ccc(-c3nc[nH]n3)cc1)C2 the result was A: 7.166%; B: -5.954%.
For COc1cc(CNc2cnn(CCN3CCOCC3)c2)cc(OC)c1 the result was A: -4.591%; B: -4.431%.
For O=C(Cc1ccccc1F)N1CCCCC1c1ccn2ccnc2n1 (centres undefined) the result was A: -0.6747%; B: 6.386%.
For Cc1cnn(CCNCc2csc(-c3cccs3)n2)c1 the result was A: 4.121%; B: 19.33%.
For Cc1nn(C)c(C)c1C1COCCN1C(=O)Cc1cccc(F)c1 (centres undefined) the result was A: -25.25%; B: -6.078% & -23.08%.
For CNC(=O)c1nc2c(s1)CCN(C(=O)Cc1ccc(OC)cc1)CC2 the result was A: -20.25%; B: -2.355%.
For c1cncc(NCCCNC2CCSC2)c1 (centres undefined) the result was A: -21.34%; B: -2.967%.

The last 3 entries again:

{"structure": "Cc1nn(C)c(C)c1C1COCCN1C(=O)Cc1cccc(F)c1", "stereo": "centres undefined", "A": -25.25, "B": "-6.078 & -23.08"}
{"structure": "CNC(=O)c1nc2c(s1)CCN(C(=O)Cc1ccc(OC)cc1)CC2", "A": -20.25, "B": -2.355}
{"structure": "c1cncc(NCCCNC2CCSC2)c1", "stereo": "centres undefined", "A": -21.34, "B": -2.967}

Data taken from ChEMBL document CHEMBL3988442, “University of Dundee, Small-Polar-MMV Screening Library” (2021).